Reference: patent EP1125946A1, “Cell adhesion therapy through modulation of a Rap family member or of a GEF (guanine nucleotide exchange factor)” (Universitair Medisch Centrum Utrecht, priority 2000, dated 2001)
For at least one compound, name, drawing or mass did not settle the structure.

Assays:
Rap1 = assay: in vivo activation of Rap1 in Cos-7 cells cotransfected with Epac1 or Epac2 (activation-specific probe assay); type: cell-based; settings: forskolin (20 µM) and IBMX (1 mM) for 10 min
Rap2 = assay: in vivo activation of Rap2 in Cos-7 cells cotransfected with Epac1 or Epac2 (32P-orthophosphate labelling, GTP/GDP ratio); type: cell-based; settings: forskolin and IBMX

C=C[C@@]1(C)CC(=O)[C@]2(O)[C@@]3(C)[C@@H](O)CCC(C)(C)[C@@H]3[C@H](O)[C@H](OC(C)=O)[C@@]2(C)O1 [forskolin]
activation of Rap1 by Epac1 and Epac2 (Rap1): enhanced | activation of Rap2 by Epac1 and Epac2 (Rap2): enhanced
